Source: PubChem BioAssay AID504764 (Drosophila RNAi Screening Center, 2011)

Test: 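Knock-downs that raise or lower a Notch target reporter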 (primary screen)
System: Drosophila Kc167 cells
Reagent: long dsRNA against Drosophila genes
Duration: about 5 days (4 days dsRNA, then 24 h after transfection)
Conditions: transfection of constitutively active membrane-tethered Notch lacking the extracellular domain, read 24 h later
Measurement: 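Firefly luciferase from an E(spl)m3 reporter with active Notch, plus control-promoter and uninduced reporter wells for normalisation; unnormalised counts, duplicate wells a and b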
Direction: induced reporter light, run 1, well a and induced reporter light, run 1, well b: higher = more light from the Notch target reporter with active Notch; control promoter light, run 1, well a and control promoter light, run 1, well b: higher = more light from the viral control promoter (cell number, transfection, viability); uninduced reporter light, run 1, well a: higher = more light from the Notch target reporter without active Notch
Rule for the call: 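Wells with low control signal or poorly matching duplicates excluded; duplicates averaged; per source plate, z beyond ±2 for induced/control log2 ratio or beyond ±1.8 for induced/uninduced marks a hit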
Calls: active = modifier hit (raised or lowered Notch signal); inactive = not a hit
The deposit covers about 22,000 reagents; shown is a random part of those with a known target gene and a result. In the full data, 403 (1.9%) were called active. 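Unnormalised raw counts per well; ratio z-scores behind the hit calls and whether each hit raises or lowers signal are not deposited.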 Unmarked entries are inactive. A plus sign joins genes that one reagent is predicted to hit. Not given: the amount of reagent.

{"target gene": "CG18745 (GeneID 59141)", "amplicon": "DRSC15382", "induced reporter light, run 1, well a": 68970, "induced reporter light, run 1, well b": 86845, "control promoter light, run 1, well a": 59570, "control promoter light, run 1, well b": 65645, "uninduced reporter light, run 1, well a": 5670}
{"target gene": "Ski6 (GeneID 34721)", "amplicon": "DRSC02491", "induced reporter light, run 1, well a": 1.25e5, "induced reporter light, run 1, well b": 1.35e5, "control promoter light, run 1, well a": 1.01e5, "control promoter light, run 1, well b": 1.07e5, "uninduced reporter light, run 1, well a": 10525}
{"target gene": "RhoGEF64C (GeneID 38578)", "amplicon": "DRSC08318", "induced reporter light, run 1, well a": 1.37e5, "induced reporter light, run 1, well b": 1.42e5, "control promoter light, run 1, well a": 92320, "control promoter light, run 1, well b": 45620, "uninduced reporter light, run 1, well a": 12128}
{"target gene": "RhoGEF64C (GeneID 38578)", "amplicon": "DRSC08319", "induced reporter light, run 1, well a": 89455, "induced reporter light, run 1, well b": 82155, "control promoter light, run 1, well a": 41905, "control promoter light, run 1, well b": 37980, "uninduced reporter light, run 1, well a": 12990}
{"target gene": "CG12493 (GeneID 38575)", "amplicon": "DRSC08279", "induced reporter light, run 1, well a": 2.15e5, "induced reporter light, run 1, well b": 2.35e5, "control promoter light, run 1, well a": 1.95e5, "control promoter light, run 1, well b": 1.36e5, "uninduced reporter light, run 1, well a": 9335}
{"target gene": "Sps1 (GeneID 36587)", "amplicon": "DRSC07549", "induced reporter light, run 1, well a": 1.81e5, "induced reporter light, run 1, well b": 1.40e5, "control promoter light, run 1, well a": 2.23e5, "control promoter light, run 1, well b": 2.00e5, "uninduced reporter light, run 1, well a": 14735}
{"target gene": "Zip99C (GeneID 43533)", "amplicon": "DRSC16320", "induced reporter light, run 1, well a": 1.76e5, "induced reporter light, run 1, well b": 1.52e5, "control promoter light, run 1, well a": 1.91e5, "control promoter light, run 1, well b": 1.86e5, "uninduced reporter light, run 1, well a": 12350}
{"target gene": "CG7702 (GeneID 42242)", "amplicon": "DRSC16293", "induced reporter light, run 1, well a": "84155 (active)", "induced reporter light, run 1, well b": 1.66e5, "control promoter light, run 1, well a": 2.25e5, "control promoter light, run 1, well b": 2.89e5, "uninduced reporter light, run 1, well a": 13715}
{"target gene": "CG32148 (GeneID 251924)", "amplicon": "DRSC09338", "induced reporter light, run 1, well a": 2.13e5, "induced reporter light, run 1, well b": 1.86e5, "control promoter light, run 1, well a": 2.87e5, "control promoter light, run 1, well b": 3.30e5, "uninduced reporter light, run 1, well a": 23545}
{"target gene": "CG30393 (GeneID 246588)", "amplicon": "DRSC04253", "induced reporter light, run 1, well a": 80975, "induced reporter light, run 1, well b": 60845, "control promoter light, run 1, well a": 79295, "control promoter light, run 1, well b": 61465, "uninduced reporter light, run 1, well a": 4755}
{"target gene": "CG3032 (GeneID 31648)", "amplicon": "DRSC18266", "induced reporter light, run 1, well a": 1.29e5, "induced reporter light, run 1, well b": 1.46e5, "control promoter light, run 1, well a": 2.95e5, "control promoter light, run 1, well b": 2.87e5, "uninduced reporter light, run 1, well a": 10640}
{"target gene": "CG33969 + fbl", "amplicon": "DRSC11886", "induced reporter light, run 1, well a": 82820, "induced reporter light, run 1, well b": 77890, "control promoter light, run 1, well a": 1.08e5, "control promoter light, run 1, well b": 94275, "uninduced reporter light, run 1, well a": 8115}
